Common to all, as to assay: pull-down; LUMIER pulldown: one protein fused to ProtA, the other to Rluc, each single-expressed in HEK293TM cells; lysis buffer 20 mM Tris pH 7.5, 250 mM NaCl, 1.1% Triton X-100, 10 mM EDTA, 10 mM DTT; sheep anti-rabbit IgG-coated Dynabeads, 1 h on ice; Rluc on the beads as percent of input; +: >= 2.5%, w: 1.5%-2.5%, -: < 1.5%; two grades in each cell
The target in experiment [1] is T1, AtGL3 (Arabidopsis thaliana) (UniProt Q9FN69).
T1 sequence: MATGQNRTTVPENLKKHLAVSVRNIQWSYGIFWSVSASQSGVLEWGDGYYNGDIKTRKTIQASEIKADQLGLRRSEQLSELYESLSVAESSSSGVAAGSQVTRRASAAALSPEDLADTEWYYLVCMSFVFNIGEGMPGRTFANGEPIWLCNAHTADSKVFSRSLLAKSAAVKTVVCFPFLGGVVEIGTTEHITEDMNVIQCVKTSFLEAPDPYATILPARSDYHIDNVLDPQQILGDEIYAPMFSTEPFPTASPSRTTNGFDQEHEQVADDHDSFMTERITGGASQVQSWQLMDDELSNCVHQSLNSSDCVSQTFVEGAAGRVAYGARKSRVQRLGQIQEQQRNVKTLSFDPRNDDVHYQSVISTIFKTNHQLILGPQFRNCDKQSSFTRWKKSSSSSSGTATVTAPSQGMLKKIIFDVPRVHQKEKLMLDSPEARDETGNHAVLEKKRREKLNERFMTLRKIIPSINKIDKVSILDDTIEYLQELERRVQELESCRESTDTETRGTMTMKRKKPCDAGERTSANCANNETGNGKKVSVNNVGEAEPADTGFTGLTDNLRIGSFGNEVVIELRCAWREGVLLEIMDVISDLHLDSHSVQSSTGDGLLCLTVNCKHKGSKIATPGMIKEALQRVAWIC

The chains behind the UniProt entries cited, without tags or fusion partners. Where a name states a change or a piece, a line headed by the entry shows the natural chain unless it says otherwise.
UniProt Q9ATD6: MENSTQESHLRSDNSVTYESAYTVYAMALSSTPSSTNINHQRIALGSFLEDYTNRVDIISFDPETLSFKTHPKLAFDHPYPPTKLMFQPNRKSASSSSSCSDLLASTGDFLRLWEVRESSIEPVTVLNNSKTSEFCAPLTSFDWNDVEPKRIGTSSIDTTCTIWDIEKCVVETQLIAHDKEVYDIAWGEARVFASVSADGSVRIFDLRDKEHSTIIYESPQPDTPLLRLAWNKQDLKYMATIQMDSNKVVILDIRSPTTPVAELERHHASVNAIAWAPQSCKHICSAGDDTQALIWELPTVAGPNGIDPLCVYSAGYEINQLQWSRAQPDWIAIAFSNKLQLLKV

The target of experiment [2] is T2, AtMYC1 (Arabidopsis thaliana) (UniProt Q8W2F1).
T2 sequence: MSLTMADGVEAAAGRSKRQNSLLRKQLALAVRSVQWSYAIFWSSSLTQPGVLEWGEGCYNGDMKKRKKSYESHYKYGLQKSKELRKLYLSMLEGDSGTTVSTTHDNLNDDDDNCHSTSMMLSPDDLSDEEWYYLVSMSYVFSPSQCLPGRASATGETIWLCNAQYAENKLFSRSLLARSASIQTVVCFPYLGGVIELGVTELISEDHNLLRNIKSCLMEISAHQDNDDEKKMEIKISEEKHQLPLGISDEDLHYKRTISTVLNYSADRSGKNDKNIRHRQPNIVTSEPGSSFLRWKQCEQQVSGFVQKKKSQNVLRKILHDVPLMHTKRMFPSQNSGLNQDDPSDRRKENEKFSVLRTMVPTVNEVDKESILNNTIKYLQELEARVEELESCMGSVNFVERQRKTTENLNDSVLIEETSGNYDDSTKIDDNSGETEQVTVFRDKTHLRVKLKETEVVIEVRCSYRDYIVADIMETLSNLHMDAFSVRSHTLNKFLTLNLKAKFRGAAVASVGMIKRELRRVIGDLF

For experiment [3], the target named is T3, AtTT2 (Arabidopsis thaliana) (UniProt Q9FJA2).
T3 sequence: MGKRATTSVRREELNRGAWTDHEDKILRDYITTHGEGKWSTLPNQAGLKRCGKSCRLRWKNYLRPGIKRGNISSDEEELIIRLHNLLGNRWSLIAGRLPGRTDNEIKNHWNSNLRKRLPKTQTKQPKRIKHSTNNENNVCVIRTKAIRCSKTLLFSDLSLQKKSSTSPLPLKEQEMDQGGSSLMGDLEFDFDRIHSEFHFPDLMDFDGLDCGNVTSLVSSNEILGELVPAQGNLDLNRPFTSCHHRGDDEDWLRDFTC

Experiment [4] deals with T4, AtWER (Arabidopsis thaliana) (UniProt Q9SEI0).
T4 sequence: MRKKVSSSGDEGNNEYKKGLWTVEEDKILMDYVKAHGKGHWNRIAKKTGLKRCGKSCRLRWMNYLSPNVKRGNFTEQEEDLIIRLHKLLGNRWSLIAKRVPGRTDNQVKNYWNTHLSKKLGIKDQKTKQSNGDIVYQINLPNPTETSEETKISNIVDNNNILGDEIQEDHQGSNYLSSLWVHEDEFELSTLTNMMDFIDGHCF

Results are given in words; binding and its absence hold for the method and conditions named. Binding seen in cells or lysates may run through a third protein. For part of these data: A result given as binding can be weak or reduced; the word gives no strength. For part of these data: Tags and fused reporters may be left off the sequences shown.

Regarding GhTTG2 (Gossypium hirsutum), the binding entry in experiment [1], in experiment [2], in experiment [3] and in experiment [4] was “no binding” each time.

Take GhTTG4 (Gossypium hirsutum): the binding entry in experiment [1], in experiment [2], in experiment [3] and in experiment [4] was “no binding” in each case.

Take ZmPAC1 (Zea mays): the binding result is “binds” in experiment [1], “binds” in experiment [2], “no binding” in experiment [3] and “no binding” in experiment [4].

Turning to AaTTG1 (Arabis alpina), the binding entry was “binds” in experiment [1], “binds” in experiment [2], “no binding” in experiment [3] and “no binding” in experiment [4].

Take GhTTG1 (from UniProt Q9ATD6): the binding entry is listed as “binds” in experiment [1], “binds” in experiment [2], “no binding” in experiment [3] and “no binding” in experiment [4].

As to ZmMP1 (Zea mays), the binding entry in experiment [1], in experiment [3] and in experiment [4] was “no binding” each time.

As to GhTTG3 (Gossypium hirsutum), the binding entry is “binds” in experiment [1], “binds” in experiment [2], “binds weakly” in experiment [3] and “no binding” in experiment [4].

Source of the values: PMC6449874.
